Results on 37 targets are retold here after the supplement of paper PMC11006884.

The chains behind the UniProt entries cited, without tags or fusion partners. Where a name states a change or a piece, a line headed by the entry shows the natural chain unless it says otherwise.
UniProt P60983, whole entry: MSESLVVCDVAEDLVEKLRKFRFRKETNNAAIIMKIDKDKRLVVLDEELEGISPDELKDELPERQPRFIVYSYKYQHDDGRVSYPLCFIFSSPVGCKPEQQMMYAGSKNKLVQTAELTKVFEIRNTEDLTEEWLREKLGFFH
UniProt P54886: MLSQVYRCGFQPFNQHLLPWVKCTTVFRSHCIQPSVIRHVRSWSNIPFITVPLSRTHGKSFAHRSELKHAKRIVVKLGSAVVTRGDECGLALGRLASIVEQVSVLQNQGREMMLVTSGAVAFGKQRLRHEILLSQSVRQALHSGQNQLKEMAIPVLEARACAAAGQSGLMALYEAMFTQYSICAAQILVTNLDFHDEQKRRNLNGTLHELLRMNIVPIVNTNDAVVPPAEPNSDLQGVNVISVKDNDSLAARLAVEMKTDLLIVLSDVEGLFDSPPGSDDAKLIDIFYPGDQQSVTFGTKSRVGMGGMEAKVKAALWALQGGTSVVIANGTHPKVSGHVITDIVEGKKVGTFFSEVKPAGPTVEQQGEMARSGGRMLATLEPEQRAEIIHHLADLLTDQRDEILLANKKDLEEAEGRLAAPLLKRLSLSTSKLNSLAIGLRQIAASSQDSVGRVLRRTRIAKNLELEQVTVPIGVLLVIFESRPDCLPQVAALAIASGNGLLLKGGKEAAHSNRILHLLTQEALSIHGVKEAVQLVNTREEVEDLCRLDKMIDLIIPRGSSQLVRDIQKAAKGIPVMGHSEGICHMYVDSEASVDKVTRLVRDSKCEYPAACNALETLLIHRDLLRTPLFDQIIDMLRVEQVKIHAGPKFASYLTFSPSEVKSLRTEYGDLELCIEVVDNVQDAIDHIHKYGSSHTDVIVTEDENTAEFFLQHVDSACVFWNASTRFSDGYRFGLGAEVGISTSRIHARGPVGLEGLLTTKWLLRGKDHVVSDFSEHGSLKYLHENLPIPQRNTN
UniProt P51790: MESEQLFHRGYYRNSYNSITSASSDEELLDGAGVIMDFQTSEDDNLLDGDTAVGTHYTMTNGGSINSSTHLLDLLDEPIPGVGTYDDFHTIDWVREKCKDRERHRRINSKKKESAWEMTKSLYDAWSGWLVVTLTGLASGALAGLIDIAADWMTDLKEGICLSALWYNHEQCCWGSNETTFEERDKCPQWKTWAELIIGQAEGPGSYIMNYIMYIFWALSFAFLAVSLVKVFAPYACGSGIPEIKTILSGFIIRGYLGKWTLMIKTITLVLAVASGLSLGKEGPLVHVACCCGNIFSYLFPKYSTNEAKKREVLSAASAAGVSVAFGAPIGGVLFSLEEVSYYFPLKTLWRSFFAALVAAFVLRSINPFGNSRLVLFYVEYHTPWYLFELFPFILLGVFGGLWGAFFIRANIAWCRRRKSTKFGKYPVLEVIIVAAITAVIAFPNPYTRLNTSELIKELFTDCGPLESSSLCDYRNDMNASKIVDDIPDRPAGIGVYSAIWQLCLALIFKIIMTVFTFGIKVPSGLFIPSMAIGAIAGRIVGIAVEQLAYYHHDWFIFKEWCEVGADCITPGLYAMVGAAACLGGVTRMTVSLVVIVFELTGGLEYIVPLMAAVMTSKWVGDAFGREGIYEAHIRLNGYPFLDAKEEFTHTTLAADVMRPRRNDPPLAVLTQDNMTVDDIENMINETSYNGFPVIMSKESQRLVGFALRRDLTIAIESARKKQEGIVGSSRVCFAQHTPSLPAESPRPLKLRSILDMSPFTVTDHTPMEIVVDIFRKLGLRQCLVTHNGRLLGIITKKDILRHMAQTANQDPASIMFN
UniProt P61077: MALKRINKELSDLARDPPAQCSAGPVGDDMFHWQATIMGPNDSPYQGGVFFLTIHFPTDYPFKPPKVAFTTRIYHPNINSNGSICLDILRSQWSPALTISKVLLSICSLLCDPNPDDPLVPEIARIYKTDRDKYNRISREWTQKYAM
UniProt P55209: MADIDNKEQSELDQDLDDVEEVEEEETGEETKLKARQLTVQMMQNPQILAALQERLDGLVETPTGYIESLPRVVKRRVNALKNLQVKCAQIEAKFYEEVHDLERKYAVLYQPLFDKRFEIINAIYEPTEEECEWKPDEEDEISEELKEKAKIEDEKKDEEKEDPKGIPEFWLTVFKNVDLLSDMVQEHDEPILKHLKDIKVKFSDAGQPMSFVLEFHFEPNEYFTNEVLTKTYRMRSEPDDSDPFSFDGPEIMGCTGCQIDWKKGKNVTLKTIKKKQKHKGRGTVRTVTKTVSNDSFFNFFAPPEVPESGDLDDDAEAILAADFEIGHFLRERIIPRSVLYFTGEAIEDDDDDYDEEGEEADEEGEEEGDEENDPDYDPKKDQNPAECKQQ
UniProt P52789: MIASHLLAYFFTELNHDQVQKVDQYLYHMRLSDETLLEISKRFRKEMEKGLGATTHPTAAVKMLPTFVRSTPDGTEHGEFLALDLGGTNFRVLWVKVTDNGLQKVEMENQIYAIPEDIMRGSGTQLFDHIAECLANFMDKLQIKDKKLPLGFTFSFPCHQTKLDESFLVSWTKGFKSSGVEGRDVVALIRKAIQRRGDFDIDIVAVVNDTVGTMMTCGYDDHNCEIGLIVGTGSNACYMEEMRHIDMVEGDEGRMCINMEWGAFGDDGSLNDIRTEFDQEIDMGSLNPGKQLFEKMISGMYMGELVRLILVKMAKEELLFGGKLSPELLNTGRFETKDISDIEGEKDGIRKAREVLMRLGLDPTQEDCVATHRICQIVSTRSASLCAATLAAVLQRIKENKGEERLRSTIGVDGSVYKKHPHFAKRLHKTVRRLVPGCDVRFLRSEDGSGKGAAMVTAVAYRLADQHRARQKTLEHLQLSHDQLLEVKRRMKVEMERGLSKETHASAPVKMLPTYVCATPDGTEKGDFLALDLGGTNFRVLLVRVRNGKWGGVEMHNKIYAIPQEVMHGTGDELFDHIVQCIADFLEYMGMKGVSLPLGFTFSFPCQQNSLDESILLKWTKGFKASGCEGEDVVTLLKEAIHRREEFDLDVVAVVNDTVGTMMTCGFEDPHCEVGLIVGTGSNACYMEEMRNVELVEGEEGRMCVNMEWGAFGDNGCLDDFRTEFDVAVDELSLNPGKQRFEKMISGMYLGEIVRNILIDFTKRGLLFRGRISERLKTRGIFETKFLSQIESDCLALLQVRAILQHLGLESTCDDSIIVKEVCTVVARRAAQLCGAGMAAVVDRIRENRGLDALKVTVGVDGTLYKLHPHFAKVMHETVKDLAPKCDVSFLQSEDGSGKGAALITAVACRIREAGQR
UniProt P51665: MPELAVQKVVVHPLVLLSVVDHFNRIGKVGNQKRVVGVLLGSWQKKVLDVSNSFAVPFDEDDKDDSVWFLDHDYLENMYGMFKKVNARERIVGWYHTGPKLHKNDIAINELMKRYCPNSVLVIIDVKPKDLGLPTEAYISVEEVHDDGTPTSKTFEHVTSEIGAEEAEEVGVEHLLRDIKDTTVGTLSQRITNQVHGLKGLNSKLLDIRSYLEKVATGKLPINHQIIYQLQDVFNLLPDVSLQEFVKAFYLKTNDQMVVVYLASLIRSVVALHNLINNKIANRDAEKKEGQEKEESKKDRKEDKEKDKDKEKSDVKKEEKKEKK
UniProt P55060: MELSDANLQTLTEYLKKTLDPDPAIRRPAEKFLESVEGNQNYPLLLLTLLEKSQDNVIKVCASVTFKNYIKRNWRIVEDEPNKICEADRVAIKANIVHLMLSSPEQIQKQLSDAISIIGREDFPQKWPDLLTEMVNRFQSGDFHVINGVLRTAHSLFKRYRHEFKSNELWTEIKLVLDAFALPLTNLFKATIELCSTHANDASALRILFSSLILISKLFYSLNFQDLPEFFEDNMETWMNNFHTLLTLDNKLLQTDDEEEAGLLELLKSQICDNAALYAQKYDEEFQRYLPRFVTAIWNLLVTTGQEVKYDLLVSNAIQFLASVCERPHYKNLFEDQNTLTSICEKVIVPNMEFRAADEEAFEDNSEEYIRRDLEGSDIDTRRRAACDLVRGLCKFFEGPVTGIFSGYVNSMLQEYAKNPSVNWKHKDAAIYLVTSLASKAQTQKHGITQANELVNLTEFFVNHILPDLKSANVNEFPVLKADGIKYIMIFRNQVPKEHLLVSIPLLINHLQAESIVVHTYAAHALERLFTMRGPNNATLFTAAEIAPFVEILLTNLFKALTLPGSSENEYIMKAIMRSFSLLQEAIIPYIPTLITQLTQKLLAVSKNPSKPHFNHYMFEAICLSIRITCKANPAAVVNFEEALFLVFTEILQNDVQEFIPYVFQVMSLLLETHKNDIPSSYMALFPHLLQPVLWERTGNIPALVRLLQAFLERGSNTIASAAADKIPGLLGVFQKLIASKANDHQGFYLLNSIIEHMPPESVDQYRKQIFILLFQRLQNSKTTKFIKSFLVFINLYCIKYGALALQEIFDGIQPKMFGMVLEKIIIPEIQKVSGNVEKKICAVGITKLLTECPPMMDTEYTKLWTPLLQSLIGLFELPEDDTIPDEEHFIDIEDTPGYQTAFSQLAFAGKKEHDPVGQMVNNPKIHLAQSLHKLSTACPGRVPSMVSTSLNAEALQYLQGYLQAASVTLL
UniProt P52298: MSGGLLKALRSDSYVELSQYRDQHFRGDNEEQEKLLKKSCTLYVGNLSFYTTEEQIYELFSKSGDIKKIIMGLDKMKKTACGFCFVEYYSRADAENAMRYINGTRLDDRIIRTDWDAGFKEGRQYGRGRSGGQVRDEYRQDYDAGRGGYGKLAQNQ
UniProt P52756, whole entry: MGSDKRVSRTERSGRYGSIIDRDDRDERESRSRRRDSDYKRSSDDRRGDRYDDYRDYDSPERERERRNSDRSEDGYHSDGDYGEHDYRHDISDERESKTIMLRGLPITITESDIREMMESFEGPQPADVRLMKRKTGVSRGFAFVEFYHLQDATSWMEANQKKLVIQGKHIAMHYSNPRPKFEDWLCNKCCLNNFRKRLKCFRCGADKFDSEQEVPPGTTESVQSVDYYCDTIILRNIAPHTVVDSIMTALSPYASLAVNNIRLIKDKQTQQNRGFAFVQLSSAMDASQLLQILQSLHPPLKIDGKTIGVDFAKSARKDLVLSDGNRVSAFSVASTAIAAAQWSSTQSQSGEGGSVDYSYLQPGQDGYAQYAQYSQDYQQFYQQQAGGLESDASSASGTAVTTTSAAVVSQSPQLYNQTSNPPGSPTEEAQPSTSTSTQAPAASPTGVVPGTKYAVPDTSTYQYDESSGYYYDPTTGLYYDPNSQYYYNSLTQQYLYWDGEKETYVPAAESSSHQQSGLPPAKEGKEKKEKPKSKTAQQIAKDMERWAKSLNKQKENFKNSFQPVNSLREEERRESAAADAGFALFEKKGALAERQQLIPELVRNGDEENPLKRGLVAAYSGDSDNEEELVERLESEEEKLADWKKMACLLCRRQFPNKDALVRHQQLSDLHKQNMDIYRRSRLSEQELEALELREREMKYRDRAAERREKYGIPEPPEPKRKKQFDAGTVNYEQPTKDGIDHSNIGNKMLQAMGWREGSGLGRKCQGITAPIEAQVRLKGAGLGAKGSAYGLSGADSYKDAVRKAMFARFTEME
UniProt P53609, whole entry, looked up: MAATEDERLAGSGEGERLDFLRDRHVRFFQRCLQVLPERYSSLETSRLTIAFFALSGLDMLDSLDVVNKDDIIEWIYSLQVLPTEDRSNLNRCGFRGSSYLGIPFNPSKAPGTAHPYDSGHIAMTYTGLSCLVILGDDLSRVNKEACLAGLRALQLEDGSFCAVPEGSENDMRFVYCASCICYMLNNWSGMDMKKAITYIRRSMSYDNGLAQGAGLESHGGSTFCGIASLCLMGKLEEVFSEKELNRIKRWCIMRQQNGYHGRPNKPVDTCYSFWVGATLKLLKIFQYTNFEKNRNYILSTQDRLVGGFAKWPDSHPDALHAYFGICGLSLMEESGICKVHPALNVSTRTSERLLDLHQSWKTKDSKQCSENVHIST
UniProt P55795: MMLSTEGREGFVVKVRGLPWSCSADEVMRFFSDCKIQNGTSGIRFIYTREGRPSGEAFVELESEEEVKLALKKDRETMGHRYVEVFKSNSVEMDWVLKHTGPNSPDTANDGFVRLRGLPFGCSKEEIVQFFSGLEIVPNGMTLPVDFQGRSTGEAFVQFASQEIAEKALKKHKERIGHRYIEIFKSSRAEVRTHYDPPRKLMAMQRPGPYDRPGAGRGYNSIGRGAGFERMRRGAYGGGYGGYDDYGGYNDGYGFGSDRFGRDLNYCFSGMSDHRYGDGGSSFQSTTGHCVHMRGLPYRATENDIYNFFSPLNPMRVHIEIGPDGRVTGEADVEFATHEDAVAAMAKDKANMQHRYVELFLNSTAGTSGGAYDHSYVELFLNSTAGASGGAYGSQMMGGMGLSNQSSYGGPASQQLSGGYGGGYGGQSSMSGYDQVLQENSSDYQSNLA
UniProt P62258: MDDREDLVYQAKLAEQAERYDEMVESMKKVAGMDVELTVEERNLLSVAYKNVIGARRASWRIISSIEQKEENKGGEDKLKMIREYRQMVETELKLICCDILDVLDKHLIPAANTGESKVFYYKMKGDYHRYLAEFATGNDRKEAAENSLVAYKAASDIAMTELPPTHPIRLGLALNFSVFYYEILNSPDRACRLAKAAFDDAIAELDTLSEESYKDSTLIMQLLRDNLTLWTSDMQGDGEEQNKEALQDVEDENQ

The targets with a hit were mostly taken out for another list; the other results follow. This is a noisy data set. The list shows a part of the results, in another mix than the full data.

Compound in this assay: COC(=O)/C=C/c1ccccc1 [methyl cinnamate]
Kind of assay: log2 ratio of iodoacetamide-alkyne labeling of the cysteine site, DMSO over compound (competition); higher = stronger covalent engagement of the cysteine by the compound, active = 1 or more. To be noted: 500 µM; treatment time 1 h; system: HEK293T cell lysate. Summed up: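 After 1 h at ambient temperature with vehicle or electrophile (500 µM), HEK293T lysate (2 mg/mL) was labelled for 1 h with iodoacetamide alkyne and clicked to sCIP-TMT reagents. Pooled samples were trypsin-digested overnight at 37 °C, streptavidin-enriched, acid-eluted and analysed by Orbitrap Eclipse LC-MS/MS with FAIMS, then quantified in FragPipe over three replicates with duplicate channels. A cysteine's log2 competition ratio is its mean control-channel over mean compound-channel reporter intensity. Cysteines quantified in only one replicate were not included.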
In the case of GMFB C8 (UniProt P60983), the “log2 ratio of iodoacetamide-alkyne labeling” value (from here on “log2 ratio”) was inactive: -0.0547.

In the case of COPB1 C684 (UniProt P53618), the “log2 ratio” value was inactive: -0.0395.

For the target KIF11 C819 (UniProt P52732), the “log2 ratio” value is inactive: 0.28.

For ALDH18A1 C612 (UniProt P54886), the “log2 ratio” value is inactive: -0.0501.

Take CLCN3 C733 (UniProt P51790): the “log2 ratio” value was inactive: 0.573.

With UniProt P61077_C85, the “log2 ratio” value is inactive: 0.217.

HDGF C12 (UniProt P51858): the “log2 ratio” value was inactive: 0.306.

On to RAP1GDS1 C144 (UniProt P52306), for which the “log2 ratio” value is inactive: 0.388.

For the target SUCLG1 C181 (UniProt P53597), the “log2 ratio” value is inactive: 0.3.

Take NAP1L1 C88 (UniProt P55209): the “log2 ratio” value is inactive: 0.13.

On to SEC24C C886 (UniProt P53992), for which the “log2 ratio” value was inactive: -0.395.

With ACLY C633 (UniProt P53396), the “log2 ratio” value is inactive: 0.187.

In the case of EIF6 C110 (UniProt P56537), the “log2 ratio” value was inactive: 0.0389.

On to HK2 C606 (UniProt P52789), for which the “log2 ratio” value is inactive: -0.0826.

UniProt P60891_C41: the “log2 ratio” value is inactive: 0.294.

In the case of MVD C386 (UniProt P53602), the “log2 ratio” value was inactive: -0.00555.

For PSMD7 C116 (UniProt P51665), the “log2 ratio” value is inactive: 0.174.

On to MARS C287 (UniProt P56192), for which the “log2 ratio” value is inactive: 0.0135.

For CLNS1A C73 (UniProt P54105), the “log2 ratio” value was inactive: 0.25.

On to ACTR3 C12 (UniProt P61158), for which the “log2 ratio” value was inactive: 0.375.

As to HNRNPF C267 (UniProt P52597), the “log2 ratio” value is inactive: 0.256.

As for CSE1L C272 (UniProt P55060), the “log2 ratio” value was inactive: 0.334.

Consider NCBP2 C81 (UniProt P52298), for which the “log2 ratio” value is inactive: 0.204.

RBM5 C766 (UniProt P52756): the “log2 ratio” value is inactive: 0.298.

Take NUBP1 C22 (UniProt P53384): the “log2 ratio” value is inactive: 0.38.

As to MARS C566 (UniProt P56192), the “log2 ratio” value is inactive: -0.0265.

On to ACLY C845 (UniProt P53396), for which the “log2 ratio” value was inactive: 0.0996.

Regarding PGGT1B C369 (UniProt P53609), the “log2 ratio” value is inactive: 0.293.

Turning to COPB1 C616 (UniProt P53618), the “log2 ratio” value was inactive: 0.0566.

As to RPS3A C139 (UniProt P61247), the “log2 ratio” value is inactive: 0.194.

Consider UniProt P61224_C141, for which the “log2 ratio” value was inactive: -0.000216.

As for HNRNPH2 C290 (UniProt P55795), the “log2 ratio” value is inactive: -0.0697.

Consider HNRNPA3 C196 (UniProt P51991), for which the “log2 ratio” value is inactive: 0.131.

Consider UniProt P61077_C111, for which the “log2 ratio” value is inactive: 0.143.

In the case of HNRNPM C694 (UniProt P52272), the “log2 ratio” value was inactive: 0.172.

Consider UniProt P62258_C97, for which the “log2 ratio” value is inactive: 0.0937.

In the case of TPI1 C79 (UniProt P60174), the “log2 ratio” value was inactive: 0.112.
